Consider nine compounds from PMC9369007 (International Journal of Molecular Sciences, 2022).

The test system of the data set is MCF-7 cells. Description: MTT cytotoxicity assay, MCF-7. The note with it: among MCF-7, HCT116 and HepG2 cell lines. (Tetrazolium assays rely on reduction of a dye to a coloured formazan, in cell work by metabolically active cells.)

As to `CCn1c(-c2cc(-c3n[nH]c(=S)n3CC)cc(-c3n[nH]c(=S)n3CC)c2)n[nH]c1=S` [Compound 19, 3,3′,3″-(benzene-1,3,5-triyl)tris(4-ethyl-1H-1,2,4-triazole-5(4H)-thione)], the Selectivity result is listed as “MCF-7 Selective”.
Consider `S=c1[nH]nc(-c2cc(-c3n[nH]c(=S)n3C3CCCCC3)cc(-c3n[nH]c(=S)n3C3CCCCC3)c2)n1C1CCCCC1` [Compound 20, 3,3′,3″-(benzene-1,3,5-triyl)tris(4-cyclohexyl-1H-1,2,4-triazole-5(4H)-thione)], for which the Selectivity entry is “HepG2 Selective”.
Turning to `C=CCn1c(-c2cc(-c3n[nH]c(=S)n3CC=C)cc(-c3n[nH]c(=S)n3CC=C)c2)n[nH]c1=S` [Compound 21, 3,3′,3″-(benzene-1,3,5-triyl)tris(4-allyl-1H-1,2,4-triazole-5(4H)-thione)], the Selectivity result is on record as “Nonselective”.
With `S=c1[nH]nc(-c2cc(-c3n[nH]c(=S)n3Cc3ccccc3)cc(-c3n[nH]c(=S)n3Cc3ccccc3)c2)n1Cc1ccccc1` [Compound 22, 3,3′,3″-(benzene-1,3,5-triyl)tris(4-benzyl-1H-1,2,4-triazole-5(4H)-thione)], the Selectivity result was “Nonselective”.
Next, `S=c1[nH]nc(-c2cc(-c3n[nH]c(=S)n3-c3ccccc3)cc(-c3n[nH]c(=S)n3-c3ccccc3)c2)n1-c1ccccc1` [Compound 23, 3,3′,3″-(benzene-1,3,5-triyl)tris(4-phenyl-1H-1,2,4-triazole-5(4H)-thione)]: “HCT116/HepG2 Selective”; `CCNc1nnc(-c2cc(-c3nnc(NCC)s3)cc(-c3nnc(NCC)s3)c2)s1` [Compound 25, 5,5′,5″-(benzene-1,3,5-triyl)tris(N-ethyl-1,3,4-thiadiazol-2-amine)]: “HepG2 Selective”; `C=CCNc1nnc(-c2cc(-c3nnc(NCC=C)s3)cc(-c3nnc(NCC=C)s3)c2)s1` [Compound 27, 5,5′,5″-(benzene-1,3,5-triyl)tris(N-allyl-1,3,4-thiadiazol-2-amine)]: “MCF-7 Selective”.
`c1ccc(Nc2nnc(-c3cc(-c4nnc(Nc5ccccc5)s4)cc(-c4nnc(Nc5ccccc5)s4)c3)s2)cc1` [Compound 28, 5,5′,5″-(benzene-1,3,5-triyl)tris(N-phenyl-1,3,4-thiadiazol-2-amine)]: the Selectivity entry is “MCF-7 Selective”.
Turning to `CC(=O)O[C@H]1C(=O)[C@@]2(C)[C@H]([C@H](OC(=O)c3ccccc3)[C@]3(O)C[C@H](OC(=O)[C@H](O)[C@@H](NC(=O)c4ccccc4)c4ccccc4)C(C)=C1C3(C)C)[C@]1(OC(C)=O)CO[C@@H]1C[C@@H]2O` [Taxol, reference compound], the Selectivity result is “Nonselective”.
